Assay results

By UniProt entry, the sequences of proteins in these tests, tags left out.
UniProt P04637, whole entry, target on record: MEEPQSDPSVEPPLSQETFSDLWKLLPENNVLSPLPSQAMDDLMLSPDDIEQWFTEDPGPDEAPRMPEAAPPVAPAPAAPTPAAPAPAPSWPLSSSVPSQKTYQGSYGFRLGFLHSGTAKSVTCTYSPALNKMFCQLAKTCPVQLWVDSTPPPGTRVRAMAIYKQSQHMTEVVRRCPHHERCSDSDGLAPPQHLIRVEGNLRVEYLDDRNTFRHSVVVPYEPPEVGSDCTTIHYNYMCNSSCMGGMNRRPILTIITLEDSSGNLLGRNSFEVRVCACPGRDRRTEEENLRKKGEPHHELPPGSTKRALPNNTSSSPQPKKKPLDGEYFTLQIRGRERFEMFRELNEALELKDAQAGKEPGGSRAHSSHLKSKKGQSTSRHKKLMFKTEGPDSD

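A p53 activation reporter screen in HCT116 cells, measuring substrate cleavage as a two-wavelength fluorescence ratio after overnight exposure. The potency comes from a curve fitted over a dilution series, but the concentrations used are not stated here. The number is the AC50, the concentration giving half of the fitted maximal signal rise; lower values mean stronger potency. Inconclusive means a continuous hit score below zero, meaning the response went the wrong way; at least 0.9 counts as active, and between zero and 0.9 as inactive.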

Values are in nM. Every entry below has the call inconclusive. These entries are mostly ones the record files as inconclusive; other results of the assay are not listed here. Activity scores are not listed here. An entry listed twice with the same setting is a separate test.

- CCC(C)CO (centres undefined) | AC50 50198 nM
- O=c1ccc2ccccc2o1 | AC50 88416 nM
- CN(C)CCO | AC50 46364 nM
- CCc1nccnc1C | AC50 46082 nM
- N#Cc1ccc(Cl)cc1 | AC50 80757 nM
- CN(C)CCC#N | AC50 46082 nM
- Cc1ccc2c(c1)C(=O)OC2=O | AC50 46034 nM
- Cc1cc(Cl)ccc1OC(C)C(=O)O (centres undefined) | AC50 45442 nM
- CC(CCl)OP(=O)(OC(C)CCl)OC(C)CCl (centres undefined) | AC50 72668 nM
- CCN(Cc1cccc(S(=O)(=O)O)c1)c1ccc(C(=C2C=CC(=[N+](CC)Cc3cccc(S(=O)(=O)[O-])c3)C=C2)c2ccccc2)cc1 | AC50 63759 nM
- O=C(O)CC(O)(CC(=O)O)C(=O)O | AC50 46382 nM
- CC(=O)c1c(C)c([N+](=O)[O-])c(C(C)(C)C)c([N+](=O)[O-])c1C | AC50 46082 nM
- CC(C)c1ccc(C=O)cc1 | AC50 46082 nM
- COc1ccc([N+](=O)[O-])cc1N | AC50 80307 nM
- BrCc1ccc(Br)cc1 | AC50 85845 nM
- COC(=O)C1(O)c2ccccc2-c2ccccc21 | AC50 46082 nM
- C=C(Cl)Cl | AC50 48548 nM
- CCC(C(=O)NC(N)=O)c1ccccc1 (centres undefined) | AC50 46082 nM
- COCC(=O)N(c1c(C)cccc1C)N1CCOC1=O | AC50 46082 nM
- CN(N=O)C(=O)N[C@@H]1[C@@H](O)[C@H](O)[C@@H](CO)O[C@@H]1O | AC50 45783 nM
- O=[N+]([O-])c1cc([As](=O)(O)O)ccc1O | AC50 77583 nM
- CC(C)(C)CC(C)(C)c1ccc(O)c(-n2nc3ccccc3n2)c1 | AC50 23041 nM
- Oc1ccc(Cc2ccccc2O)cc1 | AC50 46571 nM
- CC(C)CCCCCCCOC(=O)c1ccccc1C(=O)OCCCCCCCC(C)C | AC50 84436 nM
- CC(=O)OCCOCCOCCOC(C)=O | AC50 45603 nM
- C=CC(C)(CCC=C(C)C)OC(=O)C(C)C (centres undefined) | AC50 46083 nM
- COC(CC(C)CCCC(C)(C)O)OC (centres undefined) | AC50 46084 nM
- CN(C)CCO | AC50 23041 nM
- O=c1c(O)c(-c2ccc(O)cc2O)oc2cc(O)cc(O)c12 | AC50 43801 nM
- CN(C)CCC=C1c2ccccc2CCc2ccccc21 | AC50 73855 nM
- Cc1cccc(N)c1 | AC50 46214 nM
- Nc1ccc(Cl)c(Cl)c1 | AC50 46972 nM
- CCOCCO | AC50 47161 nM
- Cc1[nH]cnc1C[C@H]1CCc2c(C)c3ccccc3n2C1=O | AC50 23041 nM
- Nc1ccc(S(=O)(=O)Nc2nccs2)cc1 | AC50 23041 nM
- CCCCCC(C=O)=Cc1ccccc1 | AC50 46131 nM
- C=CC(O)CCCCC (centres undefined) | AC50 74533 nM
- O=C(O)c1ccccc1-n1cc(C(=O)O)c(=O)c2cc(Nc3c(F)cc(F)cc3Cl)c(Cl)cc21 | AC50 78435 nM
- CCCOC(=O)c1c(Cl)c(Cl)c(Cl)c(Cl)c1C(=O)OCCC | AC50 71602 nM
- N[C@@H](Cc1cc(I)c(Oc2cc(I)c(O)c(I)c2)c(I)c1)C(=O)O | AC50 31566 nM
- CCCCCCOC(=O)C(C)CC (centres undefined) | AC50 46084 nM
- Cc1oncc1C(=O)Nc1ccc(C(F)(F)F)cc1 | AC50 46082 nM
- Nc1ccc(S(=O)(=O)Nc2nccs2)cc1 | AC50 46315 nM
- CN(C)C=O | AC50 46082 nM
- OCC(O)CCl (centres undefined) | AC50 83856 nM

The last 4 entries again:

With Cc1oncc1C(=O)Nc1ccc(C(F)(F)F)cc1 the assay gave AC50 46082 nM.
With Nc1ccc(S(=O)(=O)Nc2nccs2)cc1 the assay gave AC50 46315 nM.
With CN(C)C=O the assay gave AC50 46082 nM.
With OCC(O)CCl (centres undefined) the assay gave AC50 83856 nM.

From PubChem BioAssay record AID2283596 (EPA ToxCast, 2025).